This passage reports binding results from publication PMC9044860.

Chains of the proteins cited; added tags and fusions are not shown.
UniProt Q16665: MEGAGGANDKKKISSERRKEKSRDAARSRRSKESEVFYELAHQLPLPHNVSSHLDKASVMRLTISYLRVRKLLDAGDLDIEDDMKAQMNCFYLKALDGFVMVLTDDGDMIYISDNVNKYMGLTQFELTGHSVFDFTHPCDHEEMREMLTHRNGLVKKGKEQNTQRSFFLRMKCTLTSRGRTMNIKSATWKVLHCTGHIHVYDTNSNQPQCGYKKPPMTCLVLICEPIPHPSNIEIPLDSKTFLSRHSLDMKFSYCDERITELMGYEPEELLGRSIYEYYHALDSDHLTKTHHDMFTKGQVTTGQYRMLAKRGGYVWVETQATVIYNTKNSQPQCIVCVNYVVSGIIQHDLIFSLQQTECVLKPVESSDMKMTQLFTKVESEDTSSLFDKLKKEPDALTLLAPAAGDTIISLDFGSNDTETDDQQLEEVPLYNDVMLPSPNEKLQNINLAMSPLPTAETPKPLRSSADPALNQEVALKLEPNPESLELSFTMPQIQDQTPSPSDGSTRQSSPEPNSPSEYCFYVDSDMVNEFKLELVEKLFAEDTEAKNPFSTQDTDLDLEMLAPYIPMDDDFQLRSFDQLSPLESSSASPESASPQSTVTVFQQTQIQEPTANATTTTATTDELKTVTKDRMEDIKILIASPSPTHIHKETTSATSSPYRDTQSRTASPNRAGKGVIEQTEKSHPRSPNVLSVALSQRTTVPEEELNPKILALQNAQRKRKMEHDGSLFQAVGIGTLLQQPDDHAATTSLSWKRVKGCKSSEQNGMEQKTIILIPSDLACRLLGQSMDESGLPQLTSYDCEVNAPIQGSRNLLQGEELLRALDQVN
UniProt P08047: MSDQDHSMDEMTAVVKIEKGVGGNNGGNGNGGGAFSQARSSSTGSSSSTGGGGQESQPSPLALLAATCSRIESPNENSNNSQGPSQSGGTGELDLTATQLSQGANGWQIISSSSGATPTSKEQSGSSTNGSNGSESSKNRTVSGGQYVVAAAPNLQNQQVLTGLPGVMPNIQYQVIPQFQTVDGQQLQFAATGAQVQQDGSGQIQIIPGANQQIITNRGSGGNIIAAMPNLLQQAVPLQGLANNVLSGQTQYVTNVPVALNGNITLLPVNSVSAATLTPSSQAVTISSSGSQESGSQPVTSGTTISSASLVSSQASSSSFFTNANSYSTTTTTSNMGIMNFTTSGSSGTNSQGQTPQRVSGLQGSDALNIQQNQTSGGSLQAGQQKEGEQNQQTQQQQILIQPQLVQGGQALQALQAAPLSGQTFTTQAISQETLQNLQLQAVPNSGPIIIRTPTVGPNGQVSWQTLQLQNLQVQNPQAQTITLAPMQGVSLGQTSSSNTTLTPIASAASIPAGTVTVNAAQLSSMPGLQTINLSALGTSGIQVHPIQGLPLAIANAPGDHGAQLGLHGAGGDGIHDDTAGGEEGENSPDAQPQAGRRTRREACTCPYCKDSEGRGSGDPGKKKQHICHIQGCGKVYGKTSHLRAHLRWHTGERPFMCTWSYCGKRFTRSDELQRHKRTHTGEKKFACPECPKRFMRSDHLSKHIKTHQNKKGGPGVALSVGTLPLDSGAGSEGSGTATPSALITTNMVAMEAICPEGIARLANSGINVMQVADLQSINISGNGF

No constants are given. Whether binding was seen depends on the method and setting. Binding seen in cells or lysates may run through a third protein. Some results given as binding are weak or reduced against the parent protein; the word gives no strength.

Assay [1] concerns the target hypoxia-inducible factor-1α (HIF1α) (human (endogenous in NSCLC cell lines)) (UniProt Q16665). Kind of assay: co-IP; cells overexpressing SP1 under hypoxia; RIPA lysate, immunoprecipitation with anti-SP1 or anti-HIF1α antibodies (normal IgG as control), Dynabeads-protein G, western blot. On the technique in general: Immunoblotting shows a protein as a band on a membrane.

Assay [2] deals with specificity protein 1 (SP1), overexpressed from plasmid (pcDNA SP1) (UniProt P08047). The assay is described as above.
The target in assay [3] is specificity protein 1 (SP1) (human (endogenous in NSCLC cell lines)) (UniProt P08047). Kind of assay: condition: only under normoxia (cells not treated with hypoxia); co-IP; NSCLC cells under normoxia; RIPA lysate incubated with antibody at 4 °C overnight, Dynabeads-protein G, western blot.
The target is the same in assay [4]. Kind of assay: co-IP; NSCLC cells after hypoxia (1% O2) for 24 h; RIPA lysate incubated with antibody at 4 °C overnight, Dynabeads-protein G, western blot.

Take “specificity protein 1 (SP1), overexpressed from plasmid (pcDNA SP1) (from UniProt P08047 1-785)”: the binding result in assay [1] was “binds”.
“hypoxia-inducible factor-1α (HIF1α) (from UniProt Q16665 1-826)”: the binding result in assay [2] was “binds”; in assay [3], “no binding”; in assay [4], “binds”.
